Laboratory results reported in paper PMC6286126, “A novel pathway of LPS uptake through syndecan-1 leading to pyroptotic cell death” (eLife, 2018).
These are yes or no findings as the source states them, for the method shown. For some assays here: In cells and extracts the contact can be indirect. Some entries that bind do so weakly or less than the wild type. Sequences can lack the tags named with a protein. One block for each binder: values may come before it.

Legend:
[1] = target: T1, mouse SDC1 over-expressed on ARH-77 cells (ARH-77-mSDC1) (mouse) (UniProt P18828); experiment: flow cytometry on cells; GST tagged mouse SCGB3A2 (1 µg) incubated with ARH-77-control or ARH-77-mSDC1 cells at 4 °C for 30 min; PE-anti-rabbit IgG; with or without heparin; only the binder purified
T1 sequence: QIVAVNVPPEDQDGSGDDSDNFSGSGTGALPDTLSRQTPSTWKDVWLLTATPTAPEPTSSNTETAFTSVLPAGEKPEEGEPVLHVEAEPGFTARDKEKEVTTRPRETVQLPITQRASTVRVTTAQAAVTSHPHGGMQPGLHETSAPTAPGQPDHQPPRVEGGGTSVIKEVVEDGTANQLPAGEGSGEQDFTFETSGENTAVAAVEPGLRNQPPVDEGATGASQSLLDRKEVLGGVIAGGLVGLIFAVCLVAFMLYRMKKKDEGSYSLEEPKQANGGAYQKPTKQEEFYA

[2] = target: T2, mouse SDC1 on the surface of LLC cells (mouse (endogenous in LLC)) (UniProt P18828); experiment: flow cytometry on cells; GST tagged mouse SCGB3A2 (1 or 3 µg) incubated with LLC, LLC-sh-Control or LLC-sh-SDC1 cells at 4 °C for 30 min; rabbit anti-mouse SCGB3A2 antibody, then labelled anti-rabbit IgG; with or without heparin; only the binder purified
T2 sequence: T1 sequence

[3] = target: HaloTag-mouse SCGB3A2 fusion protein (mouse) (UniProt Q920H1); experiment: SDS-PAGE with immunoblot; SDS-PAGE image of mSCGB3A2-HT using anti-HaloTag antibody
[4] = target: T3, human SCGB3A2 with a C-terminal FLAG tag (human) (UniProt Q96PL1); experiment: co-IP; data not shown; pull-down (co-immunoprecipitation) of a candidate gene product with SCGB3A2
T3 sequence: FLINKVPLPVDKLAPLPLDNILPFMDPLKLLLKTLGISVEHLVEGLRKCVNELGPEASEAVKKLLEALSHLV

[5] = target: T3, human SCGB3A2 with a C-terminal FLAG tag (human); experiment: co-IP; COS-1 cells transfected with SCGB3A2-FLAG and candidate-Myc-His; media and lysate (1% CHAPS, 150 mM NaCl, 50 mM Tris-HCl pH 7.4) combined; IP with anti-FLAG gel at 4 °C overnight, washes with 500 mM NaCl; blot with anti-Myc; called pull-down in the text

binding [1]: binds | binding [2]: binds
B1: GST tagged mouse SCGB3A2 (protein, UniProt Q920H1 22-91)
chain: LLINRLPVVDKLPVPLDDIIPSFDPLKMLLKTLGISVEHLVTGLKKCVDELGPEASEAVKKLLEALSHLV

binding [3]: binds
B2: HaloTag-mouse SCGB3A2 fusion protein (protein, UniProt Q920H1 22-91)
chain: B1 chain

binding [4]: binds
B3: podoplanin (PDPN, T1-alpha) in pcDNA3.1/Myc-His (protein, UniProt Q86YL7 23-162)
chain: ASTGQPEDDTETTGLEGGVAMPGAEDDVVTPGTSEDRYKSGLTTLVATSVNSVTGIRIEDLPTSESTVHAQEQSPSATASNVATSHSTEKVDGDTQTTVEKDGLSTVTLVGIIVGVLLAIGFIGAIIVVVMRKMSGRYSP

binding [5]: binds
B4: syndecan-1 (SDC1) in pcDNA3.1/Myc-His (receptor, UniProt P18827 23-310)
chain: QIVATNLPPEDQDGSGDDSDNFSGSGAGALQDITLSQQTPSTWKDTQLLTAIPTSPEPTGLEATAASTSTLPAGEGPKEGEAVVLPEVEPGLTAREQEATPRPRETTQLPTTHLASTTTATTAQEPATSHPHRDMQPGHHETSTPAGPSQADLHTPHTEDGGPSATERAAEDGASSQLPAAEGSGEQDFTFETSGENTAVVAVEPDRRNQSPVDQGATGASQGLLDRKEVLGGVIAGGLVGLIFAVCLVGFMLYRMKKKDEGSYSLEEPKQANGGAYQKPTKQEEFYA
